These are yes or no findings as the source states them, for the method shown. Binding seen in cells or lysates may run through a third protein. A yes stands for co-enrichment or nearness to the bait. Other partners may have been found. Tags and fused reporters may be left off the sequences shown.
Target: T1, FLAG-tagged NuSAP (nucleolar and spindle-associated protein) (human (cDNA library from HEK 293T cells)) (UniProt Q9BXS6)
T1 sequence: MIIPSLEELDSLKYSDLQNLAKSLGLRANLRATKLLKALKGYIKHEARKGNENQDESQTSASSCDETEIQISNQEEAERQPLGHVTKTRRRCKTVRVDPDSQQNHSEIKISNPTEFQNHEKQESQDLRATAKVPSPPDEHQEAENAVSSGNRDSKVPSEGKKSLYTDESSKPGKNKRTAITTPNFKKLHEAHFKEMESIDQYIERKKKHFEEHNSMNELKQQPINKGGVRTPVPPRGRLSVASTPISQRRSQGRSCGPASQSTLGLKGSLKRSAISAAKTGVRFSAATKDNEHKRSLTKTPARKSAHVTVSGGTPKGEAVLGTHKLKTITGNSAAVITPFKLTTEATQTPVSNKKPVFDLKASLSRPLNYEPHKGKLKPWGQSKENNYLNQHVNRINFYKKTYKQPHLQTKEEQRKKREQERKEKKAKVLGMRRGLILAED
Test: affinity purification with mass spectrometry; anti-FLAG-M2 agarose beads with FLAG-NuSAP- or FLAG vector-expressing HEK 293T lysates, 3 h, 4 °C; bands of a Coomassie-stained gel identified by mass spectrometry and confirmed by western blotting

binding: binds
B1: Mitotic centromere-associated kinesin (MCAK), endogenous in HEK 293T (protein, UniProt Q99661 1-725)
chain: MAMDSSLQARLFPGLAIKIQRSNGLIHSANVRTVNLEKSCVSVEWAEGGATKGKEIDFDDVAAINPELLQLLPLHPKDNLPLQENVTIQKQKRRSVNSKIPAPKESLRSRSTRMSTVSELRITAQENDMEVELPAAANSRKQFSVPPAPTRPSCPAVAEIPLRMVSEEMEEQVHSIRGSSSANPVNSVRRKSCLVKEVEKMKNKREEKKAQNSEMRMKRAQEYDSSFPNWEFARMIKEFRATLECHPLTMTDPIEEHRICVCVRKRPLNKQELAKKEIDVISIPSKCLLLVHEPKLKVDLTKYLENQAFCFDFAFDETASNEVVYRFTARPLVQTIFEGGKATCFAYGQTGSGKTHTMGGDLSGKAQNASKGIYAMASRDVFLLKNQPCYRKLGLEVYVTFFEIYNGKLFDLLNKKAKLRVLEDGKQQVQVVGLQEHLVNSADDVIKMIDMGSACRTSGQTFANSNSSRSHACFQIILRAKGRMHGKFSLVDLAGNERGADTSSADRQTRMEGAEINKSLLALKECIRALGQNKAHTPFRESKLTQVLRDSFIGENSRTCMIATISPGISSCEYTLNTLRYADRVKELSPHSGPSGEQLIQMETEEMEACSNGALIPGNLSKEEEELSSQMSSFNEAMTQIRELEEKAMEELKEIIQQGPDWLELSEMTEQPDYDLETFVNKAESALAQQAKHFSALRDVIKALRLAMQLEEQASRQISSKKRPQ

From article PMC4702128
